# Screen size: about 340,000 compounds; about 170 (0.05%) were called active. Inconclusive means that the source gave no clear call. Such entries were picked first, then a sample of the others. The call rests on the fitted dose curve; in most records, active means well fitted inhibition curve with a large enough effect in the signal ratio, with a control signal flat (not every such curve was filed as active); inconclusive means small, poorly fitted or top-dose-only effect, or effect the other way, or a change in a side signal; inactive means flat fitted curve, though single readings scatter; the % refers to the signal ratio. Potencies beside an inconclusive call are fits to weak or partial responses and may not hold up.
# Experiment: qHTS Assay to Find Inhibitors of Chronic Active B-Cell Receptor Signaling;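 on activity change, negative = inhibition: plate controls were basal doxycycline-induced cells for no effect and cells given 10 µM MG132 for full effect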
# Conditions: ABC-DLBCL IkBa-CBG/CBR reporter, luminescence ratio (green luciferase fused to IkBa over red control in TMD8 lymphoma cells), 4 h; activity change, negative = inhibition: at 46.1 µM (top of the series)
# How it was run: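 Concentration-response series (up to 46 uM) were applied to TMD8 dual-reporter cells for 4 h at 37C with doxycycline. Green/red ratio, after filter-overlap correction, defined %Activity; red signal alone was normalised to basal cells and zero luminescence.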
# Potency means the concentration at half of the fitted maximal effect.
SMILES,Potency,"activity change, negative = inhibition"
c1ccc(-c2nc3cc4ccccc4cc3[nH]2)nc1,"inconclusive: 5.17 µM [falling, single point]",–
COc1ccc(S(=O)(=O)CCC(=O)Nc2c(C)n(C)n(-c3ccccc3)c2=O)cc1,–,inconclusive: 8.76%
c1ccc(Cc2nc3ccccc3[nH]2)cc1,"inconclusive: 35.5 µM [falling, single point]",–
Nn1c(SCC(=O)NCCc2ccc(F)cc2)nnc1C1CCCCC1,–,inactive
CC(C)(C)OC(=O)N1CCC(C(=O)NCC2CCCO2)CC1 (stereo not given),–,inactive
Cc1nn(-c2ccccc2)c(C)c1-c1nnc(-c2c(C)nn(-c3ccccc3)c2C)o1,–,inactive
CCOc1ccccc1/C=N/NC(=O)c1cccc(Cl)c1,–,inconclusive: 0.487%
O=C(Nc1ccc(-c2nnc3n2CCCCC3)cc1)c1cc2ccccc2o1,–,inconclusive: -0.193%
CC1=CC(C)(C)N=C(NC#N)N1,–,inconclusive: 1.25%
Clc1ccccc1-c1csc(Nc2cccnc2)n1,–,inconclusive: 3.84%
CCC(=O)NC(Nc1c(C)n(C)n(-c2ccccc2)c1=O)C(Cl)(Cl)Cl (stereo not given),"inconclusive: 35.5 µM [rising, partial curve, poor fit]",–
O=C(CNS(=O)(=O)c1ccc(Br)cc1)NCc1cccnc1,–,inactive
CC(Oc1ccc(Cl)cc1Cl)C(=O)/C=C/N(C)C (stereo not given),–,inconclusive: 18.1%
Cc1c(N2C(=O)C(=O)/C(=C(/O)c3ccc(Cl)cc3)C2c2ccccc2)c(=O)n(-c2ccccc2)n1C (stereo not given),–,inconclusive: 2.19%
CCc1nc(SCc2ccc(OCC(C)C)cc2)n[nH]1,–,inconclusive: -0.411%
CS(=O)(=O)N(CC(=O)Nc1ccccc1C(=O)NCCc1ccccc1)c1ccc2c(c1)OCCO2,–,inconclusive: -0.374%
CC1=CC(C)(C)N(C(=O)CCl)c2cc(C)ccc21,"inconclusive: 35.5 µM [rising, partial curve, poor fit]",–
O=C(/C=C/c1cc([N+](=O)[O-])ccc1OC(F)F)Nc1cccc([N+](=O)[O-])c1,–,inconclusive: 6.1%
COc1ccc(-c2noc(CCCC(=O)NC3CCCCC3)n2)cc1,–,inactive
Cc1ccc([N+](=O)[O-])cc1NC(=O)C(Sc1ccccc1)c1ccccc1 (stereo not given),–,inactive

# Arranged by number of heavy atoms (high to low): 11 of the compounds above
SMILES,Potency,"activity change, negative = inhibition"
Cc1c(N2C(=O)C(=O)/C(=C(/O)c3ccc(Cl)cc3)C2c2ccccc2)c(=O)n(-c2ccccc2)n1C (stereo not given),–,inconclusive: 2.19%
Cc1nn(-c2ccccc2)c(C)c1-c1nnc(-c2c(C)nn(-c3ccccc3)c2C)o1,–,inactive
O=C(Nc1ccc(-c2nnc3n2CCCCC3)cc1)c1cc2ccccc2o1,–,inconclusive: -0.193%
Cc1ccc([N+](=O)[O-])cc1NC(=O)C(Sc1ccccc1)c1ccccc1 (stereo not given),–,inactive
CCC(=O)NC(Nc1c(C)n(C)n(-c2ccccc2)c1=O)C(Cl)(Cl)Cl (stereo not given),"inconclusive: 35.5 µM [rising, partial curve, poor fit]",–
O=C(CNS(=O)(=O)c1ccc(Br)cc1)NCc1cccnc1,–,inactive
CCOc1ccccc1/C=N/NC(=O)c1cccc(Cl)c1,–,inconclusive: 0.487%
CCc1nc(SCc2ccc(OCC(C)C)cc2)n[nH]1,–,inconclusive: -0.411%
Clc1ccccc1-c1csc(Nc2cccnc2)n1,–,inconclusive: 3.84%
c1ccc(Cc2nc3ccccc3[nH]2)cc1,"inconclusive: 35.5 µM [falling, single point]",–
CC1=CC(C)(C)N=C(NC#N)N1,–,inconclusive: 1.25%

# Remaining list, next part.

SMILES,Potency,"activity change, negative = inhibition"
CCOc1ccccc1NC(=O)CN1c2cccc3cccc(c23)S1(=O)=O,"inconclusive: 16.4 µM [cytotoxic, partial curve]",–
O=C(CCCN1C(=O)/C(=C/c2ccc(F)cc2)SC1=S)NC1CCS(=O)(=O)C1 (stereo not given),"inconclusive: 4.47 µM [falling, partial curve]",–
CC1CCCC(C)N1/N=C/c1ccc(C#N)cc1 (stereo not given),–,inconclusive: 14.9%
COc1ccc(NC(=O)c2nc3nc(C)cc(C(F)F)n3n2)cc1OC,–,inconclusive: -3.24%
COc1ccc2cc(-c3[nH]ncc3CN3C[C@@H]4CCC[C@H]3C4)ccc2c1,"inconclusive: 11.2 µM [falling, single point]",–
CS(=O)(=O)NCc1ccc(C(=O)NCc2ccccc2)cc1,–,inconclusive: -1.89%
Cc1ccc(NC(=O)COC(=O)CNC(=O)c2cccc([N+](=O)[O-])c2)cc1S(=O)(=O)N1CCCCCC1,–,inconclusive: -2.03%
C/C(CCN1CCCCc2nc(C)c(C)cc21)=N\O[C@@H](C)CN1CCCCc2nc(C)c(C)cc21,–,inactive
O=[N+]([O-])c1ccccc1Nc1nc(-c2cccnc2)cs1,"inconclusive: 20 µM [falling, single point]",–
Cc1oc(-c2cccc(F)c2)nc1CN1CCCN(C(=O)c2ccco2)CC1,–,inactive
O=C(Nc1ccc(-c2nc3cccnc3s2)cc1)c1ccco1,–,inconclusive: 5.96%
Oc1ccc(/C=N/NC(=S)NCC2CCCO2)cc1 (stereo not given),–,inactive
CCOC(=O)CNS(=O)(=O)c1cc(-c2n[nH]c(=O)c3ccccc23)ccc1C,"inconclusive: 15.8 µM [falling, partial curve, poor fit]",–
O=S(=O)(NC(=NCc1ccccc1)c1ccc(F)cc1)c1ccc(Cl)cc1,–,inactive
CCOC(=O)C1=C(COC(=O)c2ccc(OC)c(OC)c2OC)NC(=O)NC1C (stereo not given),"inconclusive: 18.4 µM [falling, partial curve]",–
COc1cccc(CC(NC(C)=O)C(=O)NC2CCN(C(=O)C3CC3)CC2)c1OC (stereo not given),–,inactive
Cc1ccc(S(=O)(=O)Nc2ccnc3ccccc23)cc1,–,inactive
CCCCn1c(N)c(N(CC(C)C)C(=O)C2CCN(S(=O)(=O)c3ccc(C)cc3C)CC2)c(=O)[nH]c1=O,–,inconclusive: 10.8%
CSc1ncccc1C(=O)Nc1nc2ccc(F)cc2s1,"inconclusive: 35.5 µM [falling, single point]",–
O=C(CN(C(=O)c1csnn1)c1ccccc1F)NCc1ccccc1,–,inactive
